# Experimental data as given in patent US3962039A, “Analytical procedure for thyroid hormones” (Center for Laboratory Medicine, priority 1975, dated 1976).
# Test system: T3-binding sites on serum proteins
# Assay: Recovery of triiodothyronine added to charcoal-treated human serum, radioimmunoassay after pepsin-HCl
# [1] = 90 nanograms/100 ml added, calculated 125
# [2] = 180 nanograms/100 ml added, calculated 215
# [3] = 270 nanograms/100 ml added, calculated 305
# [4] = 360 nanograms/100 ml added, calculated 395
# [5] = 450 nanograms/100 ml added, calculated 485
smiles,measurement,setting,value
"N[C@@H](Cc1cc(I)c(Oc2ccc(O)c(I)c2)c(I)c1)C(=O)O [Triiodothyronine, triiodothyronine]",Percent Recovery,[1],94%
same,Triiodothyronine Assayed,[1],118 ng/100 ml
same,Percent Recovery,[2],105%
same,Triiodothyronine Assayed,[2],226 ng/100 ml
same,Percent Recovery,[3],104%
same,Triiodothyronine Assayed,[3],318 ng/100 ml
same,Percent Recovery,[4],94%
same,Triiodothyronine Assayed,[4],370 ng/100 ml
same,Percent Recovery,[5],105%
same,Triiodothyronine Assayed,[5],510 ng/100 ml
same,Triiodothyronine Assayed,"none added, charcoal-treated human serum",35 ng/100 ml
